Results on 1 molecule are retold here after US20150158912A1.

The experiment concerns the target T1, V5-tagged human IL-17RA, wild type (human) (UniProt Q96F46).
T1 sequence (looked up): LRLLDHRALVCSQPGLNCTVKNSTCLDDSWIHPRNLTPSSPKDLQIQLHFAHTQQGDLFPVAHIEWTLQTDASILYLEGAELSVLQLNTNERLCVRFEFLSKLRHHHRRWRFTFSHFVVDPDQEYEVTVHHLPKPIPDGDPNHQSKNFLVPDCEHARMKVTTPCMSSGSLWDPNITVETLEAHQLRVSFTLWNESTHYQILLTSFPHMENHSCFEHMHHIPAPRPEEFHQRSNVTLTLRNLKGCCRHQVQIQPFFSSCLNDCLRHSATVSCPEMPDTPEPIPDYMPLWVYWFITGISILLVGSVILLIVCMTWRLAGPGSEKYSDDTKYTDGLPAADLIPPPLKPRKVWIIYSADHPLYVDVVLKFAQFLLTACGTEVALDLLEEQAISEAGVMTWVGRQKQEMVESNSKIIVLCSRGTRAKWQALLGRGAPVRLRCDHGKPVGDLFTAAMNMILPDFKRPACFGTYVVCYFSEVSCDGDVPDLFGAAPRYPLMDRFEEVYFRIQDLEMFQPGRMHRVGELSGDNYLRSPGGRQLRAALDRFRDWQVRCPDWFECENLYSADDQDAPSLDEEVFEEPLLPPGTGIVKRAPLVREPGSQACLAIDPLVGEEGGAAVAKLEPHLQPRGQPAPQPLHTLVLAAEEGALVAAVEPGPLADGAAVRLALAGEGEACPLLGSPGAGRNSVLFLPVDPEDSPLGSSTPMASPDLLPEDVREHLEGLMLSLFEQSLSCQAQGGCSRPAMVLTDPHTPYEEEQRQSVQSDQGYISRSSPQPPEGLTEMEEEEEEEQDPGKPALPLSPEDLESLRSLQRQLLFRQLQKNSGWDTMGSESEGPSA
In words: co-immunoprecipitation, HeLa cells (IP anti-V5, blot anti-FLAG).

No constants are given. Whether binding was seen depends on the method and setting. In cells and extracts the contact can be indirect. Some binding calls cover weakened binding; strength is not graded here. Tags and fused reporters may be left off the sequences shown.

B1: FLAG-tagged mouse Act1 (mAct1), wild type (protein, UniProt Q8N7N6 1-555, looked up)
chain: MNRSIPVEVDESEPFPSQLLKPIPEYSPEEELEPPAPNTRNMAPSSLSVLQCPPLKLANHQPVSQQVTCLRAKVLEEGEASFFRRHPELGKDISSCSSGASEPESELGALPPEHRFTLTEKRNRWLGSQLSAASPDTGHESDKSDPSLPNALADSFSGGQEMMPRPRPRPGPHRHRAAPDVPTIDTGYDSQPQDVLGIRQLERPLPLTSSCYLQDLPGPLRSRELPPQFELERYPMNAQLLPPHPSPQAPWNCQYYCPGGPYHHQVPHGHGYPPAAAYQQVLQPALPGQVLPGARARGPRPVQKVILNDSSPQDQEERPAQRDFSFPRLPRDQLYRPPSNGVEAPEESLDLPAELRPHGPQAPSLAAVPRPPSNPLARGTLRTSNLPEELRKVFITYSMDTAMEVVKFVNFLLVNGFQTAIDIFEDRIRGIDIIKWMERYLRDKTVMIIVAISPKYKQDVEGAESQLDEDEHGLHTKYIHRMMQIEFISQGSMNFRFIPVLFPNAKKEHVPTWLQNTHVYSWPKNKKNILLRLLREEEYVAPPRGPLPTLQVVPL
With B1, the binding entry is reported as “binds”.
